This is an account of results in PMC4405695.

Chains of the proteins cited; added tags and fusions are not shown. Lines headed by an entry give the natural chain unless they say otherwise; changes in a name come on top.
UniProt P28738: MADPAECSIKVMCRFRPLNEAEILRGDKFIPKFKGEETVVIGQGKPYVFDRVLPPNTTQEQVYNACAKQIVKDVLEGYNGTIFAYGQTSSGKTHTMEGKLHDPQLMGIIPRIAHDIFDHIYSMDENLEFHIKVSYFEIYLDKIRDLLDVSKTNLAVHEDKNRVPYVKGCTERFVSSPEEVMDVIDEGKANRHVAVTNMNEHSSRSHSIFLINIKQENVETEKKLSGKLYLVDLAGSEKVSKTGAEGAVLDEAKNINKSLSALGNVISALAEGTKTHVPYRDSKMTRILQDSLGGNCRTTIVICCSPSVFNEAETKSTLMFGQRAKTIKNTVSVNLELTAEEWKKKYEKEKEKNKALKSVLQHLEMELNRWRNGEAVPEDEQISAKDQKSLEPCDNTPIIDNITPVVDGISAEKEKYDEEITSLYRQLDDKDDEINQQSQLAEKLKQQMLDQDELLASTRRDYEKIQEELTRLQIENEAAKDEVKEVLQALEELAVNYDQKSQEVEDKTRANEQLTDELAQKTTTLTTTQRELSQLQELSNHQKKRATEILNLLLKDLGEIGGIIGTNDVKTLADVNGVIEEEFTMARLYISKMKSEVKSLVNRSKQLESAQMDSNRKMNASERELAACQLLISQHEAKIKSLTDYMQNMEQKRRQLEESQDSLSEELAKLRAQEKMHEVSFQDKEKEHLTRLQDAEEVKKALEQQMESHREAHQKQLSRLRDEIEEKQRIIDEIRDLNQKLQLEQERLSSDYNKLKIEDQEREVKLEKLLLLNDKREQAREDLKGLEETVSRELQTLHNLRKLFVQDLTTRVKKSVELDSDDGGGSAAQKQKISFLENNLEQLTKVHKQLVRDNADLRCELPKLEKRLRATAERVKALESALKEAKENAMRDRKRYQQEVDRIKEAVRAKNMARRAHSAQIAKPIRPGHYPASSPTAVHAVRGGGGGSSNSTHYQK
UniProt P20339: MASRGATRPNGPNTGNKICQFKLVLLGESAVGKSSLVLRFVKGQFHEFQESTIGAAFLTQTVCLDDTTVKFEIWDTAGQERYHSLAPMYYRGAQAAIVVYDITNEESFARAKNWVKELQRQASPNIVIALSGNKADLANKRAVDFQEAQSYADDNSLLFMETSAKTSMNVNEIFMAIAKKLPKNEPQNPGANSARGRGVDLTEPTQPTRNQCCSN
UniProt P20340: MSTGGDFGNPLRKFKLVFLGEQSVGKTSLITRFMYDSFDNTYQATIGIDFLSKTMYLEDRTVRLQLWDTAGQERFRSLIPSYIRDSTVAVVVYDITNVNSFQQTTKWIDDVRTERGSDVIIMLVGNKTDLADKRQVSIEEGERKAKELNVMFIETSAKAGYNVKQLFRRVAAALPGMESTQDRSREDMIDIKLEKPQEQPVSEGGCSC

No constants are given. Whether binding was seen depends on the method and setting. For some of these results: Binding seen in cells or lysates may run through a third protein. Some results given as binding are weak or reduced against the parent protein; the word gives no strength. For some of these results: Tags and fused reporters may be left off the sequences shown.

One experiment addresses T1, CFP-KIF1C-350 (human) (UniProt O43896).
T1 sequence: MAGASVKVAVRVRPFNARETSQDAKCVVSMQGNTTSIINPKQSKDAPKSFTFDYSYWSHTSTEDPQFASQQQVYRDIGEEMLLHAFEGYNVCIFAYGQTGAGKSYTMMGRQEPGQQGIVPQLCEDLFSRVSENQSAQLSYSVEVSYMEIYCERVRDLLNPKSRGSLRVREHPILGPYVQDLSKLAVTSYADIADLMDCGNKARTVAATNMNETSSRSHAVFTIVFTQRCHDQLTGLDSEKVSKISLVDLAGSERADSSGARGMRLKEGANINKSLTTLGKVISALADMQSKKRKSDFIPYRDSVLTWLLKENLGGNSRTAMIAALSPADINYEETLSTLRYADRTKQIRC
In words: co-IP; HEK293 cells transfected 48 hr; lysis in 50 mM Hepes pH 7.4, 150 mM NaCl, 1% CHAPS; llama GFP-binding protein on Sepharose; immunoblot with anti-myc or anti-Rab6A.

Experiment [1] has as its target T2, KIF1C-355-His (human | murine) (UniProt O43896+P28738).
T2 sequence: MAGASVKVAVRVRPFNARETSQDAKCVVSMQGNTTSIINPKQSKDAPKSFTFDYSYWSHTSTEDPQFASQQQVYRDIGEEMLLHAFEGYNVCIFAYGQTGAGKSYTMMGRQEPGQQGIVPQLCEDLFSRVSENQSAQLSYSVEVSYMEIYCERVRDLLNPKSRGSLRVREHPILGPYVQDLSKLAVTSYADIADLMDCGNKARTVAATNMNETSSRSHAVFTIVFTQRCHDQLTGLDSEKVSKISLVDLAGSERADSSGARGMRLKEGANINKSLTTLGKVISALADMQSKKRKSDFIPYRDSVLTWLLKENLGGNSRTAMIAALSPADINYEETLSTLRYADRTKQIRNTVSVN
The experiment can be described thus: co-sedimentation; KIF1C-355-His (160 nM) with increasing His-Rab6A Q72L, then 2.1 µM microtubules, 2.6 mM ADP, 0.35 mM GTPγS; 35% sucrose cushion; fluorescent antibody immunoblot of pellets; both purified. For orientation: Immunoblotting shows a protein as a band on a membrane.

The target of experiment [2] is T3, Full-length His-KIF1C (human) (UniProt O43896).
T3 sequence: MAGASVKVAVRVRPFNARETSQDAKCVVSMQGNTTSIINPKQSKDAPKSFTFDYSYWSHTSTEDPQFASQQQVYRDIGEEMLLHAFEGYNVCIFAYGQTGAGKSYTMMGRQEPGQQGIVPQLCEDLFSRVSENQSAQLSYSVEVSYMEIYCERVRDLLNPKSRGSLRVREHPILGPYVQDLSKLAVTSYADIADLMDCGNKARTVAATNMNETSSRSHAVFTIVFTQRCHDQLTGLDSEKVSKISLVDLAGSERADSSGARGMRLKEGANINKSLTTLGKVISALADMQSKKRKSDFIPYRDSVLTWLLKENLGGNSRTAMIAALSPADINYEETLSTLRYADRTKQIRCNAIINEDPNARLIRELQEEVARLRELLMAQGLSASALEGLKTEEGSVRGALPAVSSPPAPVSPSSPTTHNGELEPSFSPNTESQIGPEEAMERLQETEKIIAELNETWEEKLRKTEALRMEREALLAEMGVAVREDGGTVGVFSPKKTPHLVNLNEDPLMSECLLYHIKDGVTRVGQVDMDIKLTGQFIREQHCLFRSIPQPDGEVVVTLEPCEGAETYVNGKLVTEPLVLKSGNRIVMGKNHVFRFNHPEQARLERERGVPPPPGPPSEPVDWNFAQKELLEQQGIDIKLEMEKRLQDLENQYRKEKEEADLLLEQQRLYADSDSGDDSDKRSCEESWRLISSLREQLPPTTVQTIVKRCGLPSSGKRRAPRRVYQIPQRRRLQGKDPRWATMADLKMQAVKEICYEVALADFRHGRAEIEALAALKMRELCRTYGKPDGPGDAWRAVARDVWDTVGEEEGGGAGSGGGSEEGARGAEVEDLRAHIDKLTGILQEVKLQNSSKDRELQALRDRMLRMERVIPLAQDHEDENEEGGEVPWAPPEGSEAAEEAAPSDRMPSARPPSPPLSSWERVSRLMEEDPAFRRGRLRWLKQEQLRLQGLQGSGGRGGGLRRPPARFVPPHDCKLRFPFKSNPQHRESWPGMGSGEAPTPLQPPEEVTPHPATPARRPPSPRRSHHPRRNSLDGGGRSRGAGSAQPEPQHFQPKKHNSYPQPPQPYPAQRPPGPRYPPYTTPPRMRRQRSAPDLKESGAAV
In words: single-molecule TIRF microscopy; antibody-labelled full-length KIF1C (9-10 nM) on rhodamine-labelled microtubules (7.5 µg/ml) held on coverslips, ± GTPγS-loaded Rab6A (15 µM); both purified.

A further experiment deals with T4, GST-KIF1C CBD (human) (UniProt O43896).
T4 sequence: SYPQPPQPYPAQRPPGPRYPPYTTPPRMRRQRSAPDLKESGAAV
In words: pull-down; His-Rab preloaded with 35S-GTPγS (0.5-1 μM) with GST-KIF1C constructs (15 μM) on glutathione Sepharose, 1 hr room temperature, 20 mM HEPES pH 7.4, 150 mM KCl, 4 mM MgCl2, 0.1% BSA, 0.2% Triton X-100; scintillation counting; both purified.

In the next experiment the target is GST-Rab5A Q79L (UniProt P20339). In words: pull-down; purified KIF1C-355-His (45 nM-0.56 µM) with GTPγS-loaded GST-Rabs (0.2-2.5 μM) collected on glutathione Sepharose; immunoblot; one panel with AMP-PNP or ADP; both purified.
In experiment [3] the target is GST-Rab6A Q72L (UniProt P20340). Described as above.
For experiment [4] the target is unchanged. In words: pull-down; concentration dependence: purified KIF1C-355-His (78.8 nM) with GTPγS-loaded GST-Rab6A Q72L immobilized on glutathione Sepharose; quantitative fluorescent antibody immunoblot; both purified.

With “endogenous Rab6A (from UniProt P20340 1-208)”, in the experiment with CFP-KIF1C-350 (human), the binding result is reported as “binds”. Regarding “His-Rab6A Q72L (from UniProt P20340 1-208)”, the binding entry in experiment [1] is given as “binds”.

In the case of His-Rab6A (from UniProt P20340 1-208), the binding result (in experiment [2]; in the experiment with GST-KIF1C CBD (human)) was “binds” each time. With “KIF1C-355-His (from UniProt O43896 1-349; P28738 329-334) (domain or fragment)”, the binding result is listed as “no binding (tested: 0.56 µM KIF1C-355-His, 0.2 μM GST-Rab)” with GST-Rab5A Q79L; “binds” with GST-Rab6A Q72L [3]; “binds” in the experiment with GST-Rab6A Q72L [4].
